PubChem BioAssay AID1259254, NCATS | 2017

Aim: 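Finding genes that stop cells copying their DNA twice in one cycle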 (primary screen)
Cell system: human HCT116 colorectal cancer cells
Reagents: single siRNA against human genes
Duration: 3 days
Measurement: 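Nuclei stained with Hoechst and imaged; cell-cycle phase assigned by DNA content; G2 share scaled per plate, non-targeting siRNA 0%, GMNN siRNA 100%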
Scale: G2 robust z-score and G2 cells, % of GMNN control: higher = more G2 cells, more excess DNA replication; raw share of cells in G2: higher = larger share of cells with G2 DNA content
Hit rule: 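An siRNA counts as active if its G2 robust z-score lies at least 5 MADs above the screen median; here such calls match roughly 38% of GMNN control or more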
The deposit covers about 59,000 reagents; this is a random part of them. Over the whole deposit, about 1,550 (2.6%) were called active. 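G2 share is only a proxy for re-replication; each gene was hit by three separate siRNAs, and active genes were retested.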 The raw values are shown without normalisation. Reagents against one gene are numbered here. The record does not give: the amount of reagent.

no.	gene	siRNA no.	G2 robust z-score	G2 cells, % of GMNN control	raw share of cells in G2 (%)	Call
1	MCRS1	1	-0.642	-1.55	4.63	inactive
2	MCRS1	2	0.137	3.93	5.58	inactive
3	MCRS1	3	0.44	6.06	5.61	inactive
4	OR8G5	1	-0.933	-3.59	2.27	inactive
5	OR8G5	2	0.614	7.29	5.63	inactive
6	OR8G5	3	-0.297	0.879	3.47	inactive
7	XYLT1	1	0.103	3.69	5.57	inactive
8	XYLT1	2	-1.26	-5.89	3.21	inactive
9	XYLT1	3	-0.777	-2.5	3.46	inactive
10	PDGFB	1	5.83	44	23.7	active
11	PDGFB	2	0.455	6.17	6.66	inactive
12	PDGFB	3	0.257	4.77	5.08	inactive
13	IGSF8	1	0.0637	3.42	5.53	inactive
14	IGSF8	2	4.34	33.5	13.5	inactive
15	IGSF8	3	0.606	7.23	5.22	inactive
16	GALNT5	1	1.15	11	7.85	inactive
17	GALNT5	2	3.35	26.5	17	inactive
18	GALNT5	3	-0.185	1.67	4.44	inactive
19	ZNF101P2	1	0.251	4.73	5.45	inactive
20	ZNF101P2	2	1.8	15.6	9.36	inactive
21	ZNF101P2	3	3.61	28.4	14.8	inactive
22	OXR1	1	0.106	3.72	5.95	inactive
23	OXR1	2	1.18	11.3	8.82	inactive
24	OXR1	3	-0.699	-1.95	2.51	inactive
25	PIWIL1	1	-0.269	1.07	5.82	inactive
26	PIWIL1	2	2.76	22.4	13.3	inactive
27	PIWIL1	3	0.392	5.73	5.49	inactive
28	TBC1D5	1	0.321	5.22	7.18	inactive
29	TBC1D5	2	0.329	5.28	5	inactive
30	TBC1D5	3	1.31	12.2	9.7	inactive
31	FGF7P7	1	0.0417	3.26	4.78	inactive
32	FGF7P7	2	-0.855	-3.05	1.8	inactive
33	FGF7P7	3	-0.73	-2.17	2.78	inactive
34	GIN1	1	-0.879	-3.21	4.44	inactive
35	GIN1	2	1.45	13.1	9.56	inactive
36	GIN1	3	-0.632	-1.48	3.36	inactive
37	IGFN1	1	0.681	7.76	7.38	inactive
38	IGFN1	2	0.512	6.57	5.06	inactive
39	IGFN1	3	0.071	3.47	4.02	inactive
40	NTAQ1	1	-0.412	0.0693	4.55	inactive
41	NTAQ1	2	-0.445	-0.161	4.07	inactive
42	NTAQ1	3	-0.0241	2.8	4.03	inactive
43	EFCAB9	1	-0.422	-0.00422	3.64	inactive
44	EFCAB9	2	-0.692	-1.9	2.31	inactive
45	EFCAB9	3	-1.25	-5.83	1.49	inactive
46	SH3TC2	1	0.313	5.17	6.83	inactive
47	SH3TC2	2	0.0268	3.16	6.02	inactive
48	SH3TC2	3	-0.475	-0.378	2.6	inactive
49	SH3BP5L	1	-1.09	-4.69	2.5	inactive
50	SH3BP5L	2	-0.263	1.12	4.79	inactive
51	SH3BP5L	3	1.02	10.2	5.15	inactive
52	ZNF529	1	-0.479	-0.405	2.65	inactive
53	ZNF529	2	0.195	4.34	7.87	inactive
54	ZNF529	3	0.00944	3.03	4.59	inactive
55	DEFB135	1	-0.921	-3.51	1.92	inactive
56	DEFB135	2	1.02	10.2	7.55	inactive
57	DEFB135	3	-0.59	-1.19	2.97	inactive
58	NBR1	1	0.835	8.84	8.73	inactive
59	NBR1	2	-0.189	1.64	4.87	inactive
60	NBR1	3	1.94	16.7	9.37	inactive
61	RGS6	1	0.685	7.79	5.86	inactive
62	RGS6	2	3.54	27.8	16.1	inactive
63	RGS6	3	2	17.1	11.7	inactive
64	ATP1A2	1	1.21	11.5	9.47	inactive
65	ATP1A2	2	-0.152	1.9	5.42	inactive
66	ATP1A2	3	0.864	9.05	7.91	inactive
67	TUBB7P	1	-1.35	-6.51	3.58	inactive
68	TUBB7P	2	-1.01	-4.16	2.95	inactive
69	TUBB7P	3	0.414	5.88	6.79	inactive

Reformatted: results already given
OXR1 #1: G2 robust z-score = 0.106; G2 cells, % of GMNN control = 3.72; raw share of cells in G2 (%) = 5.95; Call = inactive
OXR1 #2: G2 robust z-score = 1.18; G2 cells, % of GMNN control = 11.3; raw share of cells in G2 (%) = 8.82; Call = inactive
OXR1 #3: G2 robust z-score = -0.699; G2 cells, % of GMNN control = -1.95; raw share of cells in G2 (%) = 2.51; Call = inactive
PIWIL1 #1: G2 robust z-score = -0.269; G2 cells, % of GMNN control = 1.07; raw share of cells in G2 (%) = 5.82; Call = inactive
PIWIL1 #2: G2 robust z-score = 2.76; G2 cells, % of GMNN control = 22.4; raw share of cells in G2 (%) = 13.3; Call = inactive
PIWIL1 #3: G2 robust z-score = 0.392; G2 cells, % of GMNN control = 5.73; raw share of cells in G2 (%) = 5.49; Call = inactive
TBC1D5 #1: G2 robust z-score = 0.321; G2 cells, % of GMNN control = 5.22; raw share of cells in G2 (%) = 7.18; Call = inactive
